Results are given in words; binding and its absence hold for the method and conditions named. Some results given as binding are weak or reduced against the parent protein; the word gives no strength. For some assays here: Sequences can lack the tags named with a protein. Blank lines part the entries; values can stand above or below the binder they belong to.
What was measured:
[1] = biological target: T1, MEKK1 (protein encoded by p-MEKK1, transiently expressed in COS cells) (mouse) (UniProt P53349); assay: two-hybrid system
T1 sequence: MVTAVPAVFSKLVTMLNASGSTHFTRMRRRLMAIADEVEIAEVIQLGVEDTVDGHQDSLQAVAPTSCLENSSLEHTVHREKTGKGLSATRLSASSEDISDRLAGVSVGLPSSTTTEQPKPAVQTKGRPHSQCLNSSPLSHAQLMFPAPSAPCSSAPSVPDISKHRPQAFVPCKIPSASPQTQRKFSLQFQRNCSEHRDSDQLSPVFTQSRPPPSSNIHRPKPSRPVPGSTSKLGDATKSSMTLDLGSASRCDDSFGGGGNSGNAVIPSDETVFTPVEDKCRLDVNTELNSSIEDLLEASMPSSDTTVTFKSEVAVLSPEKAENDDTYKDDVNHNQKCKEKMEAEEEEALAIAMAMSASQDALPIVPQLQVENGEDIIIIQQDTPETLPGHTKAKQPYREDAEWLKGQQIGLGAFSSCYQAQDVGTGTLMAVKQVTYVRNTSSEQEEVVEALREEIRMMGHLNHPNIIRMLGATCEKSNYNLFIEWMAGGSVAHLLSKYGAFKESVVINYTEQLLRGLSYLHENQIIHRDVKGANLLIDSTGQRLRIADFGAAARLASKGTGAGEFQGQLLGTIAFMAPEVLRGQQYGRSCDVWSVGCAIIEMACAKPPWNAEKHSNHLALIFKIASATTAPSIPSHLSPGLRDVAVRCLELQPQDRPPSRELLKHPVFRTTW

[2] = biological target: T1, MEKK1 (protein encoded by p-MEKK1, transiently expressed in COS cells) (mouse); assay: GST fusion protein interaction with COS cell-expressed MEKK1

binding [1]: binds
B1: T cell 14-3-3 isoform (two-hybrid system) (protein, UniProt P27348 1-245, looked up)
chain: MEKTELIQKAKLAEQAERYDDMATCMKAVTEQGAELSNEERNLLSVAYKNVVGGRRSAWRVISSIEQKTDTSDKKLQLIKDYREKVESELRSICTTVLELLDKYLIANATNPESKVFYLKMKGDYFRYLAEVACGDDRKQTIDNSQGAYQEAFDISKKEMQPTHPIRLGLALNFSVFYYEILNNPELACTLAKTAFDEAIAELDTLNEDSYKDSTLIMQLLRDNLTLWTSDSAGEECDAAEGAEN

binding [2]: binds
B2: GST fusion protein of the T cell 14-3-3 isoform (protein, UniProt P27348 1-245, looked up, not shown: a dimerising Fc or GST)
chain: B1 chain

Source: patent US20080201790A1, “Method and product for regulating cell responsiveness to external signals” (priority 1993, published 2008)
